Measurements taken from PMC7819943, “Rice protein-binding microarrays: a tool to detect cis-acting elements near promoter regions in rice”.
The other results are listed elsewhere or left out.

By UniProt entry, the sequences of proteins in these tests, tags left out.
UniProt Q0JBA9, entry or part of it: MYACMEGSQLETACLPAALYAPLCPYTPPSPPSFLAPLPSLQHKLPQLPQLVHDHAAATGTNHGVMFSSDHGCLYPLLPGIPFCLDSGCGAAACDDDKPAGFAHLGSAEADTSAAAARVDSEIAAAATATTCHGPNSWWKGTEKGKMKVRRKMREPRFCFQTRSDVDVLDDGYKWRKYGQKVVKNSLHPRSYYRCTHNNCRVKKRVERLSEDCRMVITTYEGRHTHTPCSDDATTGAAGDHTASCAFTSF

Molecular target: OsWRKY34 (Oryza sativa, UniProt Q0JBA9 1-250)
Assay: protein-binding microarray (RPBM); PBS, 2% BSA, 51.3 ng/ul salmon testes DNA, 50 uM zinc acetate, 200 nM TF, 25 C, 1 h; high values mean tight binding
Details: protein: recombinant; tags: N-terminal polyhistidine and DsRed monomer fusion (pET32a); label: CyDye5-dUTP incorporated in the synthesized complementary strand; 3' TTTTT single-stranded linker to array surface; dsDNA, one strand shown
Method in brief: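 Polyhistidine-tagged DsRed fusions of transcription factors, joined at the N-terminus, were expressed in E. coli BL21-CodonPlus and isolated on Ni–NTA. They were incubated at 200 nM for 1 h at 25 °C on a custom Agilent array, double-stranded and BSA-blocked, in PBS with 2% BSA, salmon testes DNA and 50 µM zinc acetate. The binding signal is per-feature fluorescence intensity (arbitrary units) read on an Axon 4000B scanner after washing.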

Sequence | binding signal
CACAATATTCCCTTCCACGCCACCAACTTTTCCACCCTTCCGGAGTCACCTAGTGCAG | 8460 fluorescence intensity (a.u.)
GGGTATTGAGTTTGATTATTGTTGTTGCCATGCTTCATTTCGGAGTCACCTAGTGCAG | 9430 fluorescence intensity (a.u.)
AAACCCAAGCCTCCATCCATCCATCCATTCATCAGAGCTCCGGAGTCACCTAGTGCAG | 8550 fluorescence intensity (a.u.)
AGGGGCATAACATACCTTGTTTCTTCTTGTCTCATCTGCACGGAGTCACCTAGTGCAG | 13600 fluorescence intensity (a.u.)
TTGGTACGTTCCCCAAACTGTAAGCCATCACCCCAAAATACGGAGTCACCTAGTGCAG | 8070 fluorescence intensity (a.u.)
GAGGTGGTGGAGGAGGAGGCCAGGGGTTCGTTGGCGGCGGCGGAGTCACCTAGTGCAG | 8840 fluorescence intensity (a.u.)
GCGATCACCCGCCTATTAGCATTAGCATTCTCGGCGATCACGGAGTCACCTAGTGCAG | 12200 fluorescence intensity (a.u.)
TAGAAAGATTCTGGTTCCGCCACCCATTATCCATGCTAATCGGAGTCACCTAGTGCAG | 9610 fluorescence intensity (a.u.)
TACCACCCACGCACGCTCGCCGGCAACCTCTCCGCGTTCGCGGAGTCACCTAGTGCAG | 9310 fluorescence intensity (a.u.)
CCCACACTTCTCCCGTTCTCCTGGAGGAAGACGACACCCACGGAGTCACCTAGTGCAG | 8150 fluorescence intensity (a.u.)
ATTTTCCTTGATTTTTTTTGTGTGTTTGGGAATTGGGATACGGAGTCACCTAGTGCAG | 12600 fluorescence intensity (a.u.)
GGAGGTGTCGCCGTTCCCGTTGTTCTGCTGCCTCGAGCCCCGGAGTCACCTAGTGCAG | 13000 fluorescence intensity (a.u.)
CTCCTCCTTACCTTCCCTGCTCGGGGAGGTCGGGGTCGCTCGGAGTCACCTAGTGCAG | 8780 fluorescence intensity (a.u.)
GTATACTCTGCTGATGTGTTTATGTGTTTAAGGTCGTTGACGGAGTCACCTAGTGCAG | 10000 fluorescence intensity (a.u.)
TTCAAAATATTTGACACCGTTGACTTTTTAGTACGTGTTTCGGAGTCACCTAGTGCAG | 18200 fluorescence intensity (a.u.)
CTACTGTATACTACTCTCAGTTTCTTCTTGTTTCTTAGTCCGGAGTCACCTAGTGCAG | 12600 fluorescence intensity (a.u.)
GCTTCTTTCGCAAACACAGCCACGAAGTTATACAAATTTTCGGAGTCACCTAGTGCAG | 8460 fluorescence intensity (a.u.)
CCAAAACTTTGATCACTAACCATCTTATCTCAGTTTGATCCGGAGTCACCTAGTGCAG | 8340 fluorescence intensity (a.u.)
GTCCAGTCAATTTGTCAAATTTTCTTCTGCTGGTCTTGATCGGAGTCACCTAGTGCAG | 13200 fluorescence intensity (a.u.)
CAATTATCATTTATTTTGTTGTGAGTTGTTTTATCACTAACGGAGTCACCTAGTGCAG | 8660 fluorescence intensity (a.u.)
GTCTTGATTGCTTCAATTTTGCGTTACCTTACCATTTCTTCGGAGTCACCTAGTGCAG | 10800 fluorescence intensity (a.u.)

Sequence | binding signal
TGATTGTTGTGATTAACAAAGTTGTAATATCTTTTGGTTTCGGAGTCACCTAGTGCAG | 8040 fluorescence intensity (a.u.)
CGCCGCCGACTTTTCCAGACTTACCGCCTATTCTAATCCCCGGAGTCACCTAGTGCAG | 10200 fluorescence intensity (a.u.)
CGTCTCCGGCGACCGCCGCCGCCGCCGCCCTCACCGTCCGCGGAGTCACCTAGTGCAG | 8920 fluorescence intensity (a.u.)
TTGAAACTCAACGATACATCACTAGCTACCATTACGTATACGGAGTCACCTAGTGCAG | 8320 fluorescence intensity (a.u.)
CATGAGCACATAATCTCCCACTGGTCAAATCCAATGCACCCGGAGTCACCTAGTGCAG | 8680 fluorescence intensity (a.u.)
ATATGTTTTGTATTGGGAGGGAGGGAGTAATCGCTGAAGGCGGAGTCACCTAGTGCAG | 8880 fluorescence intensity (a.u.)
TCAGAATAGGGGTTTGGTTATTCCACTAGGTTATTCCGTACGGAGTCACCTAGTGCAG | 8390 fluorescence intensity (a.u.)
ACCATTTCTCTTCGTTTCTCTATGTATGACGTTTAGCTTGCGGAGTCACCTAGTGCAG | 9320 fluorescence intensity (a.u.)
AATCCTAACCATGATGCTGTTCTTGTCTGTACTACTGCAACGGAGTCACCTAGTGCAG | 8630 fluorescence intensity (a.u.)
GTGCATTTGGCATTTGCTGTTAACTTACTGATTGGACAATCGGAGTCACCTAGTGCAG | 8140 fluorescence intensity (a.u.)
AGCTCACCATTCCTCGCCTCCTAGGGTTTCCTCCTATCCACGGAGTCACCTAGTGCAG | 9500 fluorescence intensity (a.u.)
GGAGCACATAACATGCACGTCGGCCTCTGCCGCGTACGTACGGAGTCACCTAGTGCAG | 8100 fluorescence intensity (a.u.)
AACTTTATATTTTTATATTTTTGTTCTAATTTAAACCACCCGGAGTCACCTAGTGCAG | 8600 fluorescence intensity (a.u.)
AGTTCATATTATTTCGCGTTCTCTATCGATCGCGTGTATACGGAGTCACCTAGTGCAG | 8050 fluorescence intensity (a.u.)
TAATTATTACCGCTCCAACCACTATCCTAAAGTAGCTAACCGGAGTCACCTAGTGCAG | 9380 fluorescence intensity (a.u.)
TTCGACCAAATCTACTGTTTAACCTTCGAAATTCTAATCACGGAGTCACCTAGTGCAG | 8310 fluorescence intensity (a.u.)
GGCACCGCTCCTTCCCCTGGCGCCGCTCCGTCCTCCTCCGCGGAGTCACCTAGTGCAG | 8220 fluorescence intensity (a.u.)
GCTCAGTCGCTCACTTGCTTACATATCTCTCGCTCACTTGCGGAGTCACCTAGTGCAG | 8400 fluorescence intensity (a.u.)
ACTAACCAAAACCGGTCATAATAGGTCCCTCGGTGGTTTTCGGAGTCACCTAGTGCAG | 9310 fluorescence intensity (a.u.)
ATGTTGCTTGTGATGTATTGATTGTTTTTGCCAAAATATTCGGAGTCACCTAGTGCAG | 9150 fluorescence intensity (a.u.)
CGCCACCCCACCTCGCGCCTCTGCGGCTATGGCTATATCACGGAGTCACCTAGTGCAG | 8420 fluorescence intensity (a.u.)

Shown as a markdown table: part of the list above.

| Sequence | binding signal |
| --- | --- |
| TGATTGTTGTGATTAACAAAGTTGTAATATCTTTTGGTTTCGGAGTCACCTAGTGCAG | 8040 fluorescence intensity (a.u.) |
| CGCCGCCGACTTTTCCAGACTTACCGCCTATTCTAATCCCCGGAGTCACCTAGTGCAG | 10200 fluorescence intensity (a.u.) |
| CGTCTCCGGCGACCGCCGCCGCCGCCGCCCTCACCGTCCGCGGAGTCACCTAGTGCAG | 8920 fluorescence intensity (a.u.) |
| TTGAAACTCAACGATACATCACTAGCTACCATTACGTATACGGAGTCACCTAGTGCAG | 8320 fluorescence intensity (a.u.) |
| CATGAGCACATAATCTCCCACTGGTCAAATCCAATGCACCCGGAGTCACCTAGTGCAG | 8680 fluorescence intensity (a.u.) |

Further results:

Sequence | binding signal
AGACCATTGAATTCCTGTAGCAGAGTCTATTCTGAAATCCCGGAGTCACCTAGTGCAG | 9270 fluorescence intensity (a.u.)
TCTGCTGCTTCATCACGATGGCCATGTCCTTGAGCGCGCTCGGAGTCACCTAGTGCAG | 8600 fluorescence intensity (a.u.)
GTGTTCCTTGTGATTCATTTAATTTGTTGCCTATGGCAGCCGGAGTCACCTAGTGCAG | 9150 fluorescence intensity (a.u.)
GAAACCCAAACCAGAATGGCACCACGACTCCACCGCCCGACGGAGTCACCTAGTGCAG | 8910 fluorescence intensity (a.u.)
CCATGTGCGTGCCACCAAATTTCCCTGGAGACCGATCTCACGGAGTCACCTAGTGCAG | 8730 fluorescence intensity (a.u.)
GATTCTGCTTTGTTTGTGTTTATGAATGTACCAATAATTTCGGAGTCACCTAGTGCAG | 9670 fluorescence intensity (a.u.)
GTGTGAAAGCCATATGCATTTTTTAGTTAGGTATAGATTTCGGAGTCACCTAGTGCAG | 8060 fluorescence intensity (a.u.)
CTGGCCTCTAATGCTTTCCTCTTTTATCATTAGTAGTTACCGGAGTCACCTAGTGCAG | 9510 fluorescence intensity (a.u.)
ATCCTCACTCCTTTCTTCTTTCCTTTCCCCTCTCTTCACCCGGAGTCACCTAGTGCAG | 9280 fluorescence intensity (a.u.)
GCTGTTTCGCCGCACCCATCGAAATCTCACCCGCTCTCTCCGGAGTCACCTAGTGCAG | 10100 fluorescence intensity (a.u.)
GTAGGTGTGGTCAGTTTGGACTATATATATGTGATCCCTACGGAGTCACCTAGTGCAG | 8070 fluorescence intensity (a.u.)
CTCCTTTTATCGCACGTTCTCGATCCAACGGTTCCTGTGACGGAGTCACCTAGTGCAG | 10300 fluorescence intensity (a.u.)
GGGTTATGTTTCATTTGTATTATTTTCTTAATTCTTACACCGGAGTCACCTAGTGCAG | 12700 fluorescence intensity (a.u.)
AACCGTATTGCTGACCAGACCATTTTTTGCCACCATTAGTCGGAGTCACCTAGTGCAG | 11100 fluorescence intensity (a.u.)
GTTTTTTTTTTGTTTGATTTTGATAGGAGTACATCTGTACCGGAGTCACCTAGTGCAG | 8630 fluorescence intensity (a.u.)
ATCTTATCTTTGGCCTGGTTTAGTTCCCAATTTTTTTCTTCGGAGTCACCTAGTGCAG | 10700 fluorescence intensity (a.u.)
GCTCACCCAGCCACCCACTCACACACACCCTCACATCTGACGGAGTCACCTAGTGCAG | 8350 fluorescence intensity (a.u.)
TCACATCCCCTCCTAGGTTGTTTTTTTTTTTGGGATGAACCGGAGTCACCTAGTGCAG | 10100 fluorescence intensity (a.u.)
TTTGTCTATCCTGCCGGCTTTTGGCCTCTGCACGGCGCGCCGGAGTCACCTAGTGCAG | 13300 fluorescence intensity (a.u.)
AAAGGGTGGTGGTTGGGAGTTTTTGAGACGAACACGTGTCCGGAGTCACCTAGTGCAG | 8690 fluorescence intensity (a.u.)
TATGGGTCTTTTTATCACGTACTTACCTCCGTCCTATAAACGGAGTCACCTAGTGCAG | 11700 fluorescence intensity (a.u.)

Sequence | binding signal
CGCTTTGGGTTTTTATATGGACTCTTCTCTCAATATTCCTCGGAGTCACCTAGTGCAG | 8640 fluorescence intensity (a.u.)
ATTTCTTGGAGACCGTTGACTCCTCTCTCTCTATTTCCATCGGAGTCACCTAGTGCAG | 12400 fluorescence intensity (a.u.)
GTCCGCCGCCGAGAATGCAAGCCGCCACCACCACCACCACCGGAGTCACCTAGTGCAG | 8490 fluorescence intensity (a.u.)
TCCATTTGTCTCTGCTTCAACCGCACTCCTCCCGCCTCCACGGAGTCACCTAGTGCAG | 8050 fluorescence intensity (a.u.)
TTCTCTGGTCGCCTACATATCCCCTGCCCCTCCTCTCCACCGGAGTCACCTAGTGCAG | 9170 fluorescence intensity (a.u.)
TGGGATCAATTACTAGTGGTTTATATTTAAGTGGGGTCATCGGAGTCACCTAGTGCAG | 10900 fluorescence intensity (a.u.)
GTGTGTGAGGTGGGGAATTGGGAGCAGTTGATCACCGGGGCGGAGTCACCTAGTGCAG | 8970 fluorescence intensity (a.u.)
AAAATAGGCCAATAGGGTGTTGAGAGAAAAGGAGATATATCGGAGTCACCTAGTGCAG | 17500 fluorescence intensity (a.u.)
ATGGTGGGTATTTCTCTTCAGGCCATTCCTGCAGAGCAAACGGAGTCACCTAGTGCAG | 8460 fluorescence intensity (a.u.)
GTTTTCGGGTTAAGGGGTATGAATTAGATTCGGCGTACAACGGAGTCACCTAGTGCAG | 11500 fluorescence intensity (a.u.)
AGAAGGGAAGGGGAGGGGAGGGCGGGACGCCGGCCGGAGCCGGAGTCACCTAGTGCAG | 10200 fluorescence intensity (a.u.)
TTTTCTTGTGTGTTCCCTACCATCAATTTTTTTCTAATTACGGAGTCACCTAGTGCAG | 8400 fluorescence intensity (a.u.)
ACGTCCTACAAAGTGTGGTAGTTTCACTCTGTTTATTTTTCGGAGTCACCTAGTGCAG | 8330 fluorescence intensity (a.u.)
TCGTGCATGCTGCATACTACTCTGTGCTACAGTACATATACGGAGTCACCTAGTGCAG | 8200 fluorescence intensity (a.u.)
AGCAGGGGAGGTTGGGCTCGTTGTACTTCGGCGGGAGCGGCGGAGTCACCTAGTGCAG | 8120 fluorescence intensity (a.u.)
AAAGAGCCCGGATATAGCGCCTTCGTTCTTCGTCGGGTCACGGAGTCACCTAGTGCAG | 9640 fluorescence intensity (a.u.)
AACCACCACCACCGCCTCCGCTCTATCAACCCTCGCTCCGCGGAGTCACCTAGTGCAG | 10900 fluorescence intensity (a.u.)
TTTTGGATTTTGTTTCATTTTTTTTACATGCATTGGATTACGGAGTCACCTAGTGCAG | 8120 fluorescence intensity (a.u.)
TGCTTTCACTCTGTTGGAATTCTCAAGGCTGTTATTTTCACGGAGTCACCTAGTGCAG | 10200 fluorescence intensity (a.u.)
GTGTCTCCTCTCCTCTTCCTAACCTTCTCACTGATTAACACGGAGTCACCTAGTGCAG | 13100 fluorescence intensity (a.u.)
AGTTGTCGTCGCTTCAACCGCGTTGCCGCCATCACAGTCACGGAGTCACCTAGTGCAG | 8520 fluorescence intensity (a.u.)
